Measured values published in ChEMBL document CHEMBL2384921, “An altered zinc-binding site confers resistance to a covalent inactivator of New Delhi metallo-beta-lactamase-1 (NDM-1) discovered by high-throughput screening” (Bioorg Med Chem, 2013).
Several values for one entry are separate records, joined by “and”; a condition that tells them apart may be missing. Equal entries are not always repeated.

Assay: Inhibition of TEM-1 (unknown origin) using nitrocefin as substrate preincubated 10 mins followed by substrate addition measured after 20 mins relative to control

CCN(CC)C(=O)N[C@H]1C=C2c3cccc4[nH]cc(c34)C[C@H]2N(C)C1
Imax: 4% and 6%
